For at least one compound, name, drawing or mass did not settle the structure.
Target: GSK3
Assay: Kinase specificity, GSK3
Type: biochemical
Conditions: 100 μM ATP

Compound	IC50 [µM]
CNC(=O)[C@@]1(N)CC2OC1(C)n1c3ccccc3c3c4c(c5c6ccccc6n2c5c31)C(=O)NC4 (some centres unmarked) [Compound 3]	0.49
COC(=O)[C@@]1(N)CC2OC1(C)n1c3ccccc3c3c4c(c5c6ccccc6n2c5c31)C(=O)NC4 (some centres unmarked) [Compound 5]	35

— patent US20100273769A1, “COMPOSITION AND METHOD FOR THE TREATMENT OF PARKINSON'S DISEASE” (priority 2009, published 2010)
